Two sequences from US20070032439, “Tarp promoter and uses thereof” (published 2007) can be followed below.

For the series, the target named is T1, Androgen receptor (AR), endogenous LNCaP (mutated AR, mutation not stated) (Homo sapiens) (UniProt P10275).
T1 sequence (looked up, limits assumed): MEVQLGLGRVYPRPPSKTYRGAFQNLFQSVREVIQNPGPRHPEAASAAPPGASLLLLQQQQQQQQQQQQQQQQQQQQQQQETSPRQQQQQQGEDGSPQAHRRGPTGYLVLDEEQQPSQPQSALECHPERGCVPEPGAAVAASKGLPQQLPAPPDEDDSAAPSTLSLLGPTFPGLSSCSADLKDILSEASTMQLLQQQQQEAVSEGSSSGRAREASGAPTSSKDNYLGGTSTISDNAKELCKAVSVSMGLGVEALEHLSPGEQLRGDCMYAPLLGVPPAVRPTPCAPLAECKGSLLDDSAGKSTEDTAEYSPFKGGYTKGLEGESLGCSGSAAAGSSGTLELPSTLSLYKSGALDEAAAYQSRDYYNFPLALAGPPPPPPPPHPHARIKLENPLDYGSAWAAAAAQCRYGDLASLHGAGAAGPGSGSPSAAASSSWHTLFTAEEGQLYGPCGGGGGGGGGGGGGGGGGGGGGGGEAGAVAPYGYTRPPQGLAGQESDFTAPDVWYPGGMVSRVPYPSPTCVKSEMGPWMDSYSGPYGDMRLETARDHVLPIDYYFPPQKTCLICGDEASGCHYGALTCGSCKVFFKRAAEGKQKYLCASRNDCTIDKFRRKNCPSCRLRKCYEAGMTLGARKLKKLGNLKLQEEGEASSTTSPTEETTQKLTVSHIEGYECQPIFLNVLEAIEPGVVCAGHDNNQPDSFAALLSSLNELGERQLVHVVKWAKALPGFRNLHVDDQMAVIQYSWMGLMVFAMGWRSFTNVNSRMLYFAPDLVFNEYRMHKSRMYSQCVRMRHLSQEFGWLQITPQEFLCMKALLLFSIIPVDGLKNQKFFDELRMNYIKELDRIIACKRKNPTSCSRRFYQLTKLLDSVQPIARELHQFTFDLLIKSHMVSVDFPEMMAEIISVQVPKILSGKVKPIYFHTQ
Kind of series: pull-down. The settings on record: RIPA buffer, 150 mM NaCl, 4 C, anti-AR Western blot, protein in an extract, protein details: LNCaP total RIPA extract, label: biotin.

For at least one entry, the source does not settle the construct or the ends of the probe. Results from cells or extracts need not show a direct contact. A negative result means that nothing was seen under these conditions. Protein sequences can lack the tags named with them.

“GCAAGGTGAGGTCAGTTCTTAAA (double strand) [wild-type ARE[-186] biotinylated oligo]”: the binding result is recorded as “binds”.
As for “GCAAGGTGTGGTCAACTATTAAA (double strand) [mutated ARE[-186] biotinylated oligo]”, the binding result (variant of wild-type ARE[-186] biotinylated oligo) is “no binding”.
